Measured values published in patent US9855260B2, “Quinolinone derivatives” (GlaxoSmithKline LLC, priority 2011, dated 2018).
Some of these results come from one statement about several compounds together.

tested on: Human recombinant AMPK; experiment: AMPK Enzymatic Assay (Z'Lyte FRET format); type: biochemical; conditions: AMPK activation, ATP 100 μM, means of at least 2 independent experiments

| SMILES | average pEC200 (-Log(compound concentration leading to a 2-fold AMPK activity increase)) |
| --- | --- |
| O=c1[nH]c2cc(Cl)c(-c3ccc(N4CCOCC4)cc3)cc2c(O)c1-n1cccn1 [Example 50, 7-Chloro-4-hydroxy-6-(4-morpholinophenyl)-3-(1H-pyrazol-1-yl)quinolin-2(1H)-one] | greater than or equal to 5.0 |
| COc1cccc(-c2ccc(-c3cc4c(O)c(-c5cc(C)no5)c(=O)[nH]c4cc3Cl)cc2)c1O [Example 44, 7-Chloro-4-hydroxy-6-(2′-hydroxy-3′-methoxy-[1,1′-biphenyl]-4-yl)-3-(3-methylisoxazol-5-yl) quinolin-2(1H)-one] | greater than or equal to 5.0 |
| COc1cnn(-c2c(O)c3cc(-c4ccc(C5(CO)CC5)cc4)c(Cl)cc3[nH]c2=O)c1 [Example 162, 7-chloro-4-hydroxy-6-(4-(1-(hydroxymethyl)cyclopropyl)phenyl)-3-(4-methoxy-1H-pyrazol-1-yl)quinolin-2(1H)-one] | greater than or equal to 5.0 |
| COc1cccc(-c2c(O)c3cc(-c4ccc(-c5csc(N)n5)cc4)c(Cl)cc3[nH]c2=O)c1 [Example 183, 6-[4-(2-Amino-1,3-thiazol-4-yl)phenyl]-7-chloro-4-hydroxy-3-[3-(methyloxy)phenyl]quinolin-2(1H)-one] | greater than or equal to 5.0 |
| CN(C)c1ccc(-c2cc3c(O)c(-n4cc(C(=O)O)cn4)c(=O)[nH]c3cc2Cl)cc1 [Example 93, 1-(7-Chloro-6-(4-(dimethylamino)phenyl)-4-hydroxy-2-oxo-1,2-dihydroquinolin-3-yl)-1H-pyrazole-4-carboxylic acid] | greater than or equal to 5.0 |
| Cc1cc(-c2c(O)c3cc(-c4ccc(-c5ccccc5)cc4)c(Cl)cc3[nH]c2=O)on1 [Example 114, 6-([1,1′-Biphenyl]-4-yl)-7-chloro-4-hydroxy-3-(3-methylisoxazol-5-yl)quinolin-2(1H)-one] | greater than or equal to 5.0 |
| Cc1cc(-c2c(O)c3cc(-c4ccc5c(c4)CCC5)c(Cl)cc3[nH]c2=O)on1 [Example 82, 7-Chloro-6-(2,3-dihydro-1H-inden-5-yl)-4-hydroxy-3-(3-methylisoxazol-5-yl)quinolin-2(1H)-one] | greater than or equal to 5.0 |
| COc1cccc(-c2c(O)c3cc(-c4ccc(N5CCOCC5)cc4)c(F)cc3[nH]c2=O)c1 [Example 6, 7-Fluoro-4-hydroxy-3-(3-methoxyphenyl)-6-(4-morpholinophenyl)quinolin-2(1H)-one] | greater than or equal to 5.0 |
| COc1ccc(Oc2c(O)c3cc(-c4ccc(N(C)C)cc4)c(Cl)cc3[nH]c2=O)cc1 [Example 62, 7-Chloro-6-(4-(dimethylamino)phenyl)-4-hydroxy-3-(4-methoxyphenoxy)quinolin-2(1H)-one] | greater than or equal to 5.0 |
| Cn1ccc2cc(-c3cc4c(O)c(-c5cccnc5)c(=O)[nH]c4cc3Cl)ccc21 [Example 102, 7-Chloro-4-hydroxy-6-(1-methyl-1H-indol-5-yl)-3-(pyridin-3-yl)quinolin-2(1H)-one] | greater than or equal to 5.0 |
| O=c1[nH]c2cc(Cl)c(-c3ccc(N4CCCC(O)C4)cc3)cc2c(O)c1-n1cccn1 (stereo not shown) [Example 119, 7-Chloro-4-hydroxy-6-(4-(3-hydroxypiperidin-1-yl)phenyl)-3-(1H-pyrazol-1-yl)quinolin-2(1H)-one] | greater than or equal to 5.0 |
| Nc1nc(-c2ccc(-c3cc4c(O)c(-c5ccncc5)c(=O)[nH]c4cc3Cl)cc2)cs1 [Example 188, 6-(4-(2-Amino-1,3-thiazol-4-yl)phenyl)-7-chloro-4-hydroxy-3-(pyridin-4-yl)quinolin-2(1H)-one] | greater than or equal to 5.0 |
| Cc1cc(-c2c(O)c3cc(-c4ccc(C(C)C)cc4)c(Cl)cc3[nH]c2=O)on1 [Example 79, 7-Chloro-4-hydroxy-6-(4-isopropylphenyl)-3-(3-methylisoxazol-5-yl)quinolin-2(1H)-one] | greater than or equal to 5.0 |
| Cc1cc(-c2c(O)c3cc(-c4cccc(N(C)C)c4)c(Cl)cc3[nH]c2=O)on1 [Example 41, 7-Chloro-6-(3-(dimethylamino)phenyl)-4-hydroxy-3-(3-methylisoxazol-5-yl)quinolin-2(1H)-one] | greater than or equal to 5.0 |
| Cn1ccc2cc(-c3cc4c(O)c(-c5cccc(Cl)c5)c(=O)[nH]c4cc3Cl)ccc21 [Example 166, 7-Chloro-3-(3-chlorophenyl)-4-hydroxy-6-(1-methyl-1H-indol-5-yl)quinolin-2(1H)-one] | greater than or equal to 5.0 |
| Cc1cc(-c2c(O)c3cc(-c4ccc(C5(CO)CC5)cc4)c(Cl)cc3[nH]c2=O)on1 [Example 145, 7-Chloro-4-hydroxy-6-(4-(1-(hydroxymethyl)cyclopropyl)phenyl)-3-(3-methylisoxazol-5-yl)quinolin-2(1H)-one] | greater than or equal to 5.0 |

| SMILES | average pEC200 (-Log(compound concentration leading to a 2-fold AMPK activity increase)) |
| --- | --- |
| Cc1ccnc(Oc2c(O)c3cc(-c4ccc(N(C)C)cc4)c(Cl)cc3[nH]c2=O)c1 [Example 98, 7-Chloro-6-(4-(dimethylamino)phenyl)-4-hydroxy-3-((4-methylpyridin-2-yl)oxy)quinolin-2(1H)-one] | greater than or equal to 5.0 |
| O=c1[nH]c2cc(Cl)c(-c3ccc(CCO)cc3)cc2c(O)c1-c1ccccc1 [Example 53, 7-Chloro-4-hydroxy-6-(4-(2-hydroxyethyl)phenyl)-3-phenylquinolin-2(1H)-one] | greater than or equal to 5.0 |
| Cc1cnn(-c2c(O)c3cc(-c4ccc(-c5csc(N)n5)cc4)c(Cl)cc3[nH]c2=O)c1 [Example 189, 6-(4-(2-Amino-1,3-thiazol-4-yl)phenyl)-7-chloro-4-hydroxy-3-(4-methyl-1H-pyrazol-1-yl) quinolin-2(1H)-one] | greater than or equal to 5.0 |
| O=C(O)c1cnn(-c2c(O)c3cc(-c4ccc(N5CCCC5)cc4)c(Cl)cc3[nH]c2=O)c1 [Example 103, 1-(7-Chloro-4-hydroxy-2-oxo-6-(4-(pyrrolidin-1-yl)phenyl)-1,2-dihydroquinolin-3-yl)-1H-pyrazole-4-carboxylic acid] | greater than or equal to 5.0 |
| COc1ccccc1Oc1c(O)c2cc(-c3ccc(C4(CO)CC4)cc3)c(Cl)cc2[nH]c1=O [Example 161, 7-Chloro-4-hydroxy-6-(4-(1-(hydroxymethyl)cyclopropyl)phenyl)-3-(2-methoxyphenoxy) quinolin-2(1H)-one] | greater than or equal to 5.0 |
| O=c1[nH]c2cc(Cl)c(-c3ccc(N4CCCC4)cc3)cc2c(O)c1-c1cccnc1 [Example 104, 7-Chloro-4-hydroxy-3-(pyridin-3-yl)-6-(4-(pyrrolidin-1-yl)phenyl)quinolin-2(1H)-one] | greater than or equal to 5.0 |
| COc1cccc(-c2c(O)c3cc(-c4ccc(N5CCCCC5)cc4)c(Cl)cc3[nH]c2=O)c1 [Example 32, 7-Chloro-4-hydroxy-3-(3-methoxyphenyl)-6-(4-(piperidin-1-yl)phenyl)quinolin-2(1H)-one] | greater than or equal to 5.0 |
| O=c1[nH]c2cc(Cl)c(-c3ccc(N4CCCCC4)cc3)cc2c(O)c1-c1cccnc1 [Example 144, 7-Chloro-4-hydroxy-6-(4-(piperidin-1-yl)phenyl)-3-(pyridin-3-yl)quinolin-2(1H)-one] | greater than or equal to 5.0 |
| Cc1cc(-c2c(O)c3cc(-c4ccc(-c5ccc(C)s5)cc4)c(Cl)cc3[nH]c2=O)on1 [Example 16, 7-Chloro-4-hydroxy-3-(3-methylisoxazol-5-yl)-6-(4-(5-methylthiophen-2-yl)phenyl)quinolin-2(1H)-one] | greater than or equal to 5.0 |
| Nc1nc(-c2ccc(-c3cc4c(O)c(-n5ccnn5)c(=O)[nH]c4cc3Cl)cc2)cs1 [Example 190, 6-(4-(2-Amino-1,3-thiazol-4-yl)phenyl)-7-chloro-4-hydroxy-3-(1H-1,2,3-triazol-1-yl)quinolin-2(1H)-one] | greater than or equal to 5.0 |
| Cc1cc(-c2c(O)c3cc(-c4ccc(-c5csc(N)n5)cc4)c(Cl)cc3[nH]c2=O)on1 [Example 184, 6-(4-(2-Amino-1,3-thiazol-4-yl)phenyl)-7-chloro-4-hydroxy-3-(3-methylisoxazol-5-yl)quinolin-2(1H)-one] | greater than or equal to 5.0 |
| COc1ccc(-c2c(O)c3cc(-c4ccc(N(C)C)cc4)c(Cl)cc3[nH]c2=O)cc1 [Example 164, 7-Chloro-6-(4-(dimethylamino)phenyl)-4-hydroxy-3-(4-methoxyphenyl) quinolin-2(1H)-one] | greater than or equal to 5.0 |
| Cc1cccc(Oc2c(O)c3cc(-c4ccc(N(C)C)cc4)c(Cl)cc3[nH]c2=O)c1 [Example 90, 7-Chloro-6-(4-(dimethylamino)phenyl)-4-hydroxy-3-(m-tolyloxy)quinolin-2(1H)-one] | greater than or equal to 5.0 |
| Cc1cc(-c2c(O)c3cc(-c4ccc(N(C)C)cc4)c(Cl)cc3[nH]c2=O)on1 [Example 42, 7-Chloro-6-(4-(dimethylamino)phenyl)-4-hydroxy-3-(3-methylisoxazol-5-yl)quinolin-2(1H)-one] | greater than or equal to 5.0 |
| COc1ccc(-c2cc3c(O)c(Oc4ccccc4)c(=O)[nH]c3cc2Cl)cc1 [Example 124, 7-Chloro-4-hydroxy-6-(4-methoxyphenyl)-3-phenoxyquinolin-2(1H)-one] | greater than or equal to 5.0 |
